Common to all, as to format: in vivo, mice
Test [1] relates to unilateral hindlimb ischemia. In words: Vascular structure of diameter over 20 μm in hindlimb muscle. The following applies: day 14 after hindlimb ischemia; 0.01 mg atorvastatin intramuscular.
For test [2], the system named is unilateral hindlimb ischemia. In words: Capillary density by immunohistochemical staining with anti-mouse PECAM-1 (CD31) antibody. The note with it: day 14 after hindlimb ischemia; 0.01 mg statin intramuscular. As to the method:
(§1) A group of PLGA-Pit-mice (PLGA-Pit group) and a group of PEG/CS-PLGA-Pit-mice (PEG/CS-Pit group) received intramuscular injections of pitavastatin-loaded PLGA nanoparticles (0.18 mg/100 μl) and pitavastatin-loaded PEG/CS-PLGA nanoparticles (0.44 mg/100 μl, each containing 0.01 mg of pitavastatin), respectively. As control, a group of PLGA-mice (PLGA group) received intramuscular injections of PLGA nanoparticles (0.18 mg/100 μl) and another group of mice (NT group) received no treatment.

The subject of test [3] is unilateral hindlimb ischemia. The test can be described thus: Laser Doppler perfusion imaging of limb blood flow after hindlimb ischemia. The following applies: single intramuscular injection containing 0.01 mg statin (0.5 mg/kg); days 0, 3, 7 and 14; versus no-treatment; listed as Ato. On the procedure: as §1

Turning to `CC(C)c1c(C(=O)Nc2ccccc2)c(-c2ccccc2)c(-c2ccc(F)cc2)n1CC[C@@H](O)C[C@@H](O)CC(=O)O` [atorvastatin], the “vascular structure having diameter of over 20 μm” value in test [1] is “comparable to no-treatment group”. Further, the “capillary density, endothelial cells (CD31 positive cells)” value in test [2] is given as “comparable to no-treatment group”. The “limb blood flow at ischemic side (LDPI index, ratio of ischemic to normal limb)” value in test [3] is given as “no improvement of blood flow”.

Source of the values: US20100086602A1, “PHARMACEUTICAL COMPOSITION CONTAINING STATIN-ENCAPSULATED NANOPARTICLE” (priority 2006, published 2010).
